Measured values taken from article PMC8749417.
No constants are given. Whether binding was seen depends on the method and setting. Binding seen in cells or lysates may run through a third protein. Sequences can lack the tags named with a protein.

Target: T1, Flag-pGSDMD-194-488 (porcine) (UniProt F1SEV7)
T1 sequence: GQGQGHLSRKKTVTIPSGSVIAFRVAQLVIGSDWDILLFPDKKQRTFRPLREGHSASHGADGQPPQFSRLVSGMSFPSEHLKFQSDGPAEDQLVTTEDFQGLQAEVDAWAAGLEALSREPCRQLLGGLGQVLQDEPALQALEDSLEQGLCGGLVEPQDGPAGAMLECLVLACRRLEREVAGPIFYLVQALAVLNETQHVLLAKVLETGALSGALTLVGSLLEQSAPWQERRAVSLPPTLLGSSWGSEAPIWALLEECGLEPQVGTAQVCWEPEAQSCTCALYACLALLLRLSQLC
Test: co-IP; HEK293T cells transfected for 24 h, lysed; supernatants incubated with anti-Flag binding beads at 4°C overnight, washed with TBS 5 times, immunoblot

B1: porcine Caspase-1, HA-tagged (HA-pCaspase-1) (enzyme, UniProt Q9N2I1 1-404)
chain: MADKVLKEKRRLFVRSVAMGTINGLLDELLETRVLNQEEVEIVRGENATVMDKARALIDSVIRKGPQACQICINHICGDDPHLAGVLELSTGSQSGKCLTVQESQAVVPPFPAPQTVQDNPVKPASSEPRGSLKLCPPDIAQRLWKEKSAEIYPIMGKSIRTRLALIICNTEFENLPRRDGADVDIRDMKILLEDLGYSVDVRENLTASDMAIELKAFAARPEHKSSDSTFLVLMSHGIQAGICGKKYSEEVPDVLEVNTVFQILNTLNCPSLKDKPKVIIIQACRGEKQGVVWIKDSVGPSGNSSLLAAEDFEYDAIKKAHIEKDFIAFCSSTPDNVSWRHPLLGSLFIIKLIKILQEHAWSCGLEEIFRKVRFSFELADGRAQMPTAERVTLTRSFYLFPGH
binding: no binding
